Among the data in publication PMC5382670 are binding values, retold here.

The chains behind the UniProt entries cited, without tags or fusion partners.
UniProt Q62120: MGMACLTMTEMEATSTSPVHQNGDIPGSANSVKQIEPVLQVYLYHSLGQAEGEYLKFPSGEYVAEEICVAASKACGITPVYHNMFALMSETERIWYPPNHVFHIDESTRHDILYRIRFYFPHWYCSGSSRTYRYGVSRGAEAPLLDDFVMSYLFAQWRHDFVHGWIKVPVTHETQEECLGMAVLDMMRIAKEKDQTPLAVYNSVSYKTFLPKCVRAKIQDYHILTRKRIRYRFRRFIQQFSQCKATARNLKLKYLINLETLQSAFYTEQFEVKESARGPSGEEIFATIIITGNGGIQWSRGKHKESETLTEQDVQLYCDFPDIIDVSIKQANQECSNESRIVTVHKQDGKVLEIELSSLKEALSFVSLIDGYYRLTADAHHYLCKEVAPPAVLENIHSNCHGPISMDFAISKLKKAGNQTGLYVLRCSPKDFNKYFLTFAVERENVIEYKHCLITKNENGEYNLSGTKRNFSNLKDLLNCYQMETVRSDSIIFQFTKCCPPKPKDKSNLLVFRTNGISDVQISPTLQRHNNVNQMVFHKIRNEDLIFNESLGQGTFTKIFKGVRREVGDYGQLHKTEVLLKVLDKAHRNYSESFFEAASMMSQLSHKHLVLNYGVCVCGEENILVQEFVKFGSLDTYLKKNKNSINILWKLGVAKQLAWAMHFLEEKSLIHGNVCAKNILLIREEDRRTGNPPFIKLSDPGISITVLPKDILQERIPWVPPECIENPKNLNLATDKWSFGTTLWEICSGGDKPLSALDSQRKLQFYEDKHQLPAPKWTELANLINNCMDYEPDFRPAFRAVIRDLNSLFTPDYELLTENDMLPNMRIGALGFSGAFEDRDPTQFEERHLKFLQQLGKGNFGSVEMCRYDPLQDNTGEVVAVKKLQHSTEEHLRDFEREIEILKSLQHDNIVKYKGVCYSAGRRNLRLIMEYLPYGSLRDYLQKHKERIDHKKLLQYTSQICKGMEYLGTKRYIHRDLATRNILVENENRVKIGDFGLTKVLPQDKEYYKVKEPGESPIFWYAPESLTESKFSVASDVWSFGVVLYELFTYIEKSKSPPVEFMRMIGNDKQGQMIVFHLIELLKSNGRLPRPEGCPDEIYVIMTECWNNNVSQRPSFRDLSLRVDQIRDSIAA

The target of the experiment is Janus kinase 2 (JAK2), endogenous in mouse NK cells (mouse (endogenous in splenic NK cells)) (UniProt Q62120). In words: proximity ligation; Duolink in situ PLA of endogenous proteins in mouse splenic (primary) NK cells treated with IL-15 (30 ng/ml) for 12 hours; WT and SOCS2-/- cells compared for IL-15R-JAK2.

No constants are given. Whether binding was seen depends on the method and setting. Binding seen in cells or lysates may run through a third protein. Some entries that bind do so weakly or less than the wild type.

B1: Suppressor of cytokine signaling 2 (SOCS2), endogenous in mouse NK cells (protein, UniProt O35717 1-198)
chain: MTLRCLEPSGNGADRTRSQWGTAGLPEEQSPEAARLAKALRELSQTGWYWGSMTVNEAKEKLKEAPEGTFLIRDSSHSDYLLTISVKTSAGPTNLRIEYQDGKFRLDSIICVKSKLKQFDSVVHLIDYYVQMCKDKRTGPEAPRNGTVHLYLTKPLYTSAPTLQHFCRLAINKCTGTIWGLPLPTRLKDYLEEYKFQV
On to B1, for which the binding entry is “binds”.
